Source: article PMC10405847
Results are given in words; binding and its absence hold for the method and conditions named. Binding seen in cells or lysates may run through a third protein. Some entries that bind do so weakly or less than the wild type.

Sequences of proteins named here, by UniProt entry; tags and fusion partners are left off. A change or cut given only in a name is not applied to a line headed by its entry.
UniProt Q60843: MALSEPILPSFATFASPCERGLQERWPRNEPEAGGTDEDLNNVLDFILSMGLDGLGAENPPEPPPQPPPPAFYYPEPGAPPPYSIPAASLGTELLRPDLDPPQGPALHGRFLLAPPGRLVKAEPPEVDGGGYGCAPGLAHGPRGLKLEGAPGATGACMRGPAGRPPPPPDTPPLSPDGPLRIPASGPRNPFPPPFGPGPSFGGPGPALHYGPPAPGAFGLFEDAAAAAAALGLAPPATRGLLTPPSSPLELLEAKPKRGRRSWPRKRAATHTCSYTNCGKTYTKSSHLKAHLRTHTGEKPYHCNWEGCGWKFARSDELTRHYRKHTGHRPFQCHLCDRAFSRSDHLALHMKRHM
UniProt Q9EPK5: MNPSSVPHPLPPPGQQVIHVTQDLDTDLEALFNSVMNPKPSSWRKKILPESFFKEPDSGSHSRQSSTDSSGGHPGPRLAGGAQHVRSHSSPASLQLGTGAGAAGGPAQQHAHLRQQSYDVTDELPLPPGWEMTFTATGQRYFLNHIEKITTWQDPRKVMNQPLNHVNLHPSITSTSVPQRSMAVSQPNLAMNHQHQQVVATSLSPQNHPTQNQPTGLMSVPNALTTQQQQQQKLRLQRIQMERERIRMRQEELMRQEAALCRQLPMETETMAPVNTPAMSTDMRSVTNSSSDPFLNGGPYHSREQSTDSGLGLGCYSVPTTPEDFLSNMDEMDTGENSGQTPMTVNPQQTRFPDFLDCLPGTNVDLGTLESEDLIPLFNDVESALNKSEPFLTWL

How the values were obtained:
Myc-tagged KLF2 = Myc-tagged KLF2 (UniProt Q60843); test: co-IP; HEK293T transfected with wild-type or deletion mutants of TAZ and Myc-tagged KLF2; immunoprecipitation with Myc-tag antibodies, immunoblot
[1] = biological target: Transcriptional co-activator with PDZ-binding motif (TAZ), endogenous in mouse liver sinusoidal endothelial cells (mouse (endogenous in LSECs)) (UniProt Q9EPK5); test: co-IP; isolated mouse LSECs immunoprecipitated with anti-TAZ antibodies, KLF2 found by immunoblot; IgG as immunoprecipitation control
[2] = biological target: FLAG-tagged TAZ (wild type) (UniProt Q9EPK5); test: co-IP; HEK293T transfected with FLAG-tagged TAZ and Myc-tagged KLF2; lysis in RIPA buffer, anti-FLAG antibody at 4 °C overnight, protein G beads, immunoblot

FLAG-tagged TAZ (wild type) (from UniProt Q9EPK5 1-395)
binding (Myc-tagged KLF2): binds

Krüppel-like factor 2 (KLF2), endogenous in mouse liver sinusoidal endothelial cells (from UniProt Q60843 1-354)
binding [1]: binds

Myc-tagged KLF2 (from UniProt Q60843 1-354)
binding [2]: binds

TAZ164-395 (from UniProt Q9EPK5 164-395) (domain or fragment)
binding (Myc-tagged KLF2): no binding
